Results reported in the M2OR odorant receptor database.
Residue numbers refer to the chain shown, from its start. Only a part is listed here, and it is no random draw. Calls are pooled over several reports, among them a noisy single-well screen. Some of the results follow.

Chains of the proteins cited; added tags and fusions are not shown. Chains listed by the source or under a name are the forms on record and can include a tag or linker.
O10A6, as listed by the source: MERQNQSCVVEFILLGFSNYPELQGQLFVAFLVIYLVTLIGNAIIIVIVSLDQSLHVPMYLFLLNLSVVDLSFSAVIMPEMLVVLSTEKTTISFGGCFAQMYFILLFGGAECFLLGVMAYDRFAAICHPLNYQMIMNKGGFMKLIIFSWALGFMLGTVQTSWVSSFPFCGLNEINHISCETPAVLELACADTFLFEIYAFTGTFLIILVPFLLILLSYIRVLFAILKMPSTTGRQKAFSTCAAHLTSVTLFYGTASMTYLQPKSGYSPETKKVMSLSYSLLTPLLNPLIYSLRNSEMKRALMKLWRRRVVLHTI
O10C1, as listed by the source: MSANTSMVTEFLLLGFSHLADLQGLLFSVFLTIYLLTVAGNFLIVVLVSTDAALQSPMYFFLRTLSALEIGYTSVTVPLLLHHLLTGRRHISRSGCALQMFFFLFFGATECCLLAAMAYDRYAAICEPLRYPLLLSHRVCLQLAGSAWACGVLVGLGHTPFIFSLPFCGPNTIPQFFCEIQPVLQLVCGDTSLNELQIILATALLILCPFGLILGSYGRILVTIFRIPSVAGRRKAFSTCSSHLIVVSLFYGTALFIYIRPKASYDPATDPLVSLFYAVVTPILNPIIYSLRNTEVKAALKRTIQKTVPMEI

Key:
Conditions in all cases: stereoisomer not certain
O10A4 = test system: T1, O10A4
T1 sequence (whole entry): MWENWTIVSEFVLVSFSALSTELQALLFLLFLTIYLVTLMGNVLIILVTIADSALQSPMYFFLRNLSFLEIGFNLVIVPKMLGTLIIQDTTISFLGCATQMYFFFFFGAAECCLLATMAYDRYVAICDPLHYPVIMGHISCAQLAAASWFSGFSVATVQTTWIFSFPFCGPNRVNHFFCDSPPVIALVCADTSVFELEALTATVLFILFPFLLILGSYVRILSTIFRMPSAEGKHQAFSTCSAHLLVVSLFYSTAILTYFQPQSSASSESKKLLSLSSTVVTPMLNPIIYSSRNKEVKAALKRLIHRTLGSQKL
How it was run: (§1)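 Assay methods differ from source to source, frequently being transient luciferase assays in mammalian cell lines. For each receptor–molecule pair, the label responsive (active) applies when the original authors judged the measured signal statistically different from baseline, and non-responsive (inactive) applies otherwise.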

O10A5 = test system: T2, O10A5
T2 sequence (whole entry): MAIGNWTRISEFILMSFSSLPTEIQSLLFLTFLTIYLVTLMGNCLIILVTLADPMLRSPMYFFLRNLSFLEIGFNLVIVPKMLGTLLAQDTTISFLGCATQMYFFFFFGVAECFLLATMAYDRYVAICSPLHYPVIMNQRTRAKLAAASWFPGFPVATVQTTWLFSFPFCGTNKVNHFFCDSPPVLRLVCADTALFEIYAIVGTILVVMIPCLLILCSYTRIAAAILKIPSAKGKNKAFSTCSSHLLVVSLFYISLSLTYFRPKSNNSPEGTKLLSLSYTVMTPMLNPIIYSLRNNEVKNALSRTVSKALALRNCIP
How it was run: as §1

O10AD = test system: T3, O10AD
T3 sequence (whole entry): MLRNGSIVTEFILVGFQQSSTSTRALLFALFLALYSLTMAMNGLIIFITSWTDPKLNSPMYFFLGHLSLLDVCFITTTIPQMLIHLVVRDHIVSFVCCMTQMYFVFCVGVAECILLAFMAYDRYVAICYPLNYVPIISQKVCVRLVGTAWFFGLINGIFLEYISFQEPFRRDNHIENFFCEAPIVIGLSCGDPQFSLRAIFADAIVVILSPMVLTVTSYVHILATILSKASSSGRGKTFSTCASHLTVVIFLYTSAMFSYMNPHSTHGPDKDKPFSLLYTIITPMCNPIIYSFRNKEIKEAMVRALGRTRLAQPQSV
How it was run: as §1

O10C1 [1] = test system: T4, O10C1
T4 sequence (whole entry): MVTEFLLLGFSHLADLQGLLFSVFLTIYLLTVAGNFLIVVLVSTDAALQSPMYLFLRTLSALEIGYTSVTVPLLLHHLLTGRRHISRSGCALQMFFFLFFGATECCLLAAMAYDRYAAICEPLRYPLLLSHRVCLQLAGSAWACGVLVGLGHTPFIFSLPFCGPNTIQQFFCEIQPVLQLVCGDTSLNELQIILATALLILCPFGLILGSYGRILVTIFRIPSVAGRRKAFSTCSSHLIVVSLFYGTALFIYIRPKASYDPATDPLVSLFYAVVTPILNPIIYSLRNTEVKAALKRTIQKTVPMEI
How it was run: as §1

O10D3 = test system: T5, O10D3
T5 sequence (whole entry): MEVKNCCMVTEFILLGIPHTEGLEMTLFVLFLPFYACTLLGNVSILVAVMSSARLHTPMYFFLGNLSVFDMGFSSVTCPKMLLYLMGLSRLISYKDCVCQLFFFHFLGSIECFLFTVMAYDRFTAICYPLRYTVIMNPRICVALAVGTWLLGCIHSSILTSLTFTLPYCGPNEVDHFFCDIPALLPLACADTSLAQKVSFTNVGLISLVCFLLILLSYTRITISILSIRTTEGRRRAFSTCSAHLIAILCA
How it was run: as §1

O10A6 [2] = test system: T6, O10A6
T6 sequence (whole entry): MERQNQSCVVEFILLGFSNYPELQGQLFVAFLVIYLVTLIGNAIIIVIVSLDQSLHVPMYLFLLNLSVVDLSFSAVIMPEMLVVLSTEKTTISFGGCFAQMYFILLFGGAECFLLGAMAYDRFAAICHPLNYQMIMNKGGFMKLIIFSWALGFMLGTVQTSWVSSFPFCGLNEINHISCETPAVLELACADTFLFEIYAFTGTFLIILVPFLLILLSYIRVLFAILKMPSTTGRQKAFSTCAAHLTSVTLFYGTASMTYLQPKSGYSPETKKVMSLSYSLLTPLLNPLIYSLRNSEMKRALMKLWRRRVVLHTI
How it was run: as §1

O10A6 [3] = test system: O10A6; remark: listed apart in the source
How it was run: as §1

O10A6 [4] = test system: T7, O10A6; remark: listed apart in the source
T7 sequence (whole entry): T6 sequence (whole entry) with A117V
How it was run: as §1

O10C1 [5] = test system: O10C1; remark: listed apart in the source
How it was run: as §1

O10C1 [6] = test system: O10C1; remark: listed apart in the source
How it was run: as §1

Measured: odorant receptor agonist call

CCCCCCCC=O
inactive: O10A4 | O10A5 | O10AD | O10C1 [1] | O10D3

CCCCCCCCCCC=O
inactive: O10A4 | O10A5 | O10AD | O10C1 [1] | O10D3

CC12CCC(C1)C(C)(C)C2=O (stereo not given)
inactive: O10A4 | O10A5 | O10AD | O10C1 [1] | O10D3

CC(C)CCC(=O)O
inactive: O10A4 | O10A5 | O10AD | O10C1 [1] | O10D3

CC(C)CC(=O)O
inactive: O10A4 | O10A5 | O10AD | O10C1 [1] | O10D3

CC12CCC(CC1)C(C)(C)O2
inactive: O10A4 | O10A5 | O10AD | O10C1 [1] | O10D3

COc1ccccc1O
inactive: O10A4 | O10A5 | O10AD | O10C1 [1] | O10D3

c1cnccn1
inactive: O10A4 | O10A5 | O10AD | O10C1 [1] | O10D3

CC12C=CCC1C1CCC3CC(=O)CCC3(C)C1CC2 (stereo not given)
inactive: O10A4 | O10A5 | O10AD | O10C1 [1] | O10D3
active: O10A6 [2] | O10A6 [3] | O10A6 [4]

C=CCc1ccc(OC)c(OC)c1
inactive: O10A4 | O10A5 | O10AD | O10C1 [1] | O10D3

O=C1CCCCCCCCCCCC(=O)OCCO1
inactive: O10A4 | O10A5 | O10AD | O10C1 [1] | O10D3

O=C1CCCCCCCCCCCCCCO1
inactive: O10A4 | O10A5 | O10AD | O10C1 [1] | O10D3

CCCCO
inactive: O10A4 | O10A5 | O10AD | O10C1 [1] | O10D3

COc1cc(C)ccc1O
inactive: O10A4 | O10A5 | O10AD | O10C1 [1] | O10D3

CCCCCCCCOC(C)=O
inactive: O10A4 | O10A5 | O10AD | O10C1 [1] | O10D3

CC12C=CCC1C1CCC3=CC(=O)CCC3(C)C1CC2 (stereo not given)
active: O10A6 [2]
inactive: O10A4 | O10A5 | O10A6 [4] | O10AD | O10C1 [1] | O10D3

Of the compounds above, these have a COOH group.
CC(C)CCC(=O)O
inactive: O10A4 | O10A5 | O10AD | O10C1 [1] | O10D3

CC(C)CC(=O)O
inactive: O10A4 | O10A5 | O10AD | O10C1 [1] | O10D3

(listing goes on)

CC(C)(C)c1ccc(CCC=O)cc1
inactive: O10A4 | O10A5 | O10AD | O10C1 [1] | O10D3

CC=Cc1ccc(O)c(OC)c1
inactive: O10A6 [4] | O10AD | O10C1 [1] | O10D3
active: O10A4 | O10A5 | O10A6 [2]

CCC1(O)C2(C)CCC(C2)C1(C)C (stereo not given)
inactive: O10A4 | O10A5 | O10AD | O10C1 [1] | O10D3

CC(=O)OCC=C(C)CCC=C(C)C
inactive: O10A4 | O10A5 | O10AD | O10C1 [1] | O10D3

CCCCCCCOC(C)=O
inactive: O10A4 | O10A5 | O10AD | O10C1 [1] | O10D3

CC(C)C=O
inactive: O10A4 | O10A5 | O10AD | O10C1 [1] | O10D3

C=CC(C)(O)CCC=C(C)C (stereo not given)
inactive: O10A4 | O10A5 | O10AD | O10C1 [1] | O10D3

CCCC(=O)O
active: O10A6 [2]
inactive: O10A4 | O10A5 | O10A6 [4] | O10AD | O10C1 [1] | O10D3

CCC=CCCO
inactive: O10A4 | O10A5 | O10AD | O10C1 [5] | O10C1 [6] | O10C1 [1] | O10D3

C=C(C)C1CCC2=CC(=O)CC(C)C2(C)C1 (stereo not given)
active: O10A6 [2]
inactive: O10A6 [4] | O10C1 [5] | O10C1 [6]
